Reference: paper PMC7408019
These are yes or no findings as the source states them, for the method shown. In cells and extracts the contact can be indirect.

Amino acid sequences for entries named in this document (tags omitted). A change or cut given only in a name is not applied to a line headed by its entry. Chains listed by the source or under a name are the forms on record and can include a tag or linker.
UniProt P13569: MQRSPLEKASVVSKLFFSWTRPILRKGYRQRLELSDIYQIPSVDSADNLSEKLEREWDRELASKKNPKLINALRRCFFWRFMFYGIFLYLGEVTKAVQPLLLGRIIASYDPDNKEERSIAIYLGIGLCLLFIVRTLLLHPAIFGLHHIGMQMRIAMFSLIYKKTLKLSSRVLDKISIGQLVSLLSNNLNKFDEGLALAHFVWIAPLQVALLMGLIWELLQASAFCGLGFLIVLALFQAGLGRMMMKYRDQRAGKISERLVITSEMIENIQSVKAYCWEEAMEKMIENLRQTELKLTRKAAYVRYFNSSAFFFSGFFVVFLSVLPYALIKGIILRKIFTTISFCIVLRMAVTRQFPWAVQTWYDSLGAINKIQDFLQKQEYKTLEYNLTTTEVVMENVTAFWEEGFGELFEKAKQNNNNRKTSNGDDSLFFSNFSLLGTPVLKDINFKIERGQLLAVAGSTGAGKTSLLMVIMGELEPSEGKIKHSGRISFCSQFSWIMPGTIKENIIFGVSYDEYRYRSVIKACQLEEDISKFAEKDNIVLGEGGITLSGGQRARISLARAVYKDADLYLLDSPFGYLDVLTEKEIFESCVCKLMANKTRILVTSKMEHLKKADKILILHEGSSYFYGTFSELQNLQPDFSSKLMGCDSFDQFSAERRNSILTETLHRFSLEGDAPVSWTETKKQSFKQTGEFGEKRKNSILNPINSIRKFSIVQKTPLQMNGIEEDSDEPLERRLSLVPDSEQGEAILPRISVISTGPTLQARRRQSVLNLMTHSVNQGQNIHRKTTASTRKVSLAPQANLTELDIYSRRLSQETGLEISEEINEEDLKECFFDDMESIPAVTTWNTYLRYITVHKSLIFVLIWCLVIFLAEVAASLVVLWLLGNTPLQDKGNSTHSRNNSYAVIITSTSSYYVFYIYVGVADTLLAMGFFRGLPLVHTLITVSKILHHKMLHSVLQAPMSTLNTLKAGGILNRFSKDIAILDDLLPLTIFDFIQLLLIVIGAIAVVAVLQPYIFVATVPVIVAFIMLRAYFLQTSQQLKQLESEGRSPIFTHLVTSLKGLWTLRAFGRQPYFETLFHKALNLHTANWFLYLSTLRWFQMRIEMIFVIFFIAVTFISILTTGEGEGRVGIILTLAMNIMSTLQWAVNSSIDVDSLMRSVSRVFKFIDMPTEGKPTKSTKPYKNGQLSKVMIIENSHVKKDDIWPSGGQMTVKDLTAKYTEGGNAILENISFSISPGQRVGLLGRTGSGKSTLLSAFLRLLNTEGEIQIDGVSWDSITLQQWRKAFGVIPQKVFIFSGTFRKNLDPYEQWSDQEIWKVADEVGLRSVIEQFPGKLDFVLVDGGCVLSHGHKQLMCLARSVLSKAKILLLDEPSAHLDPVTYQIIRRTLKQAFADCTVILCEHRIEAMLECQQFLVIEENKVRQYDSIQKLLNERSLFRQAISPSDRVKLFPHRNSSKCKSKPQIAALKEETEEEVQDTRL
F508del-CFTR (P13569, form named): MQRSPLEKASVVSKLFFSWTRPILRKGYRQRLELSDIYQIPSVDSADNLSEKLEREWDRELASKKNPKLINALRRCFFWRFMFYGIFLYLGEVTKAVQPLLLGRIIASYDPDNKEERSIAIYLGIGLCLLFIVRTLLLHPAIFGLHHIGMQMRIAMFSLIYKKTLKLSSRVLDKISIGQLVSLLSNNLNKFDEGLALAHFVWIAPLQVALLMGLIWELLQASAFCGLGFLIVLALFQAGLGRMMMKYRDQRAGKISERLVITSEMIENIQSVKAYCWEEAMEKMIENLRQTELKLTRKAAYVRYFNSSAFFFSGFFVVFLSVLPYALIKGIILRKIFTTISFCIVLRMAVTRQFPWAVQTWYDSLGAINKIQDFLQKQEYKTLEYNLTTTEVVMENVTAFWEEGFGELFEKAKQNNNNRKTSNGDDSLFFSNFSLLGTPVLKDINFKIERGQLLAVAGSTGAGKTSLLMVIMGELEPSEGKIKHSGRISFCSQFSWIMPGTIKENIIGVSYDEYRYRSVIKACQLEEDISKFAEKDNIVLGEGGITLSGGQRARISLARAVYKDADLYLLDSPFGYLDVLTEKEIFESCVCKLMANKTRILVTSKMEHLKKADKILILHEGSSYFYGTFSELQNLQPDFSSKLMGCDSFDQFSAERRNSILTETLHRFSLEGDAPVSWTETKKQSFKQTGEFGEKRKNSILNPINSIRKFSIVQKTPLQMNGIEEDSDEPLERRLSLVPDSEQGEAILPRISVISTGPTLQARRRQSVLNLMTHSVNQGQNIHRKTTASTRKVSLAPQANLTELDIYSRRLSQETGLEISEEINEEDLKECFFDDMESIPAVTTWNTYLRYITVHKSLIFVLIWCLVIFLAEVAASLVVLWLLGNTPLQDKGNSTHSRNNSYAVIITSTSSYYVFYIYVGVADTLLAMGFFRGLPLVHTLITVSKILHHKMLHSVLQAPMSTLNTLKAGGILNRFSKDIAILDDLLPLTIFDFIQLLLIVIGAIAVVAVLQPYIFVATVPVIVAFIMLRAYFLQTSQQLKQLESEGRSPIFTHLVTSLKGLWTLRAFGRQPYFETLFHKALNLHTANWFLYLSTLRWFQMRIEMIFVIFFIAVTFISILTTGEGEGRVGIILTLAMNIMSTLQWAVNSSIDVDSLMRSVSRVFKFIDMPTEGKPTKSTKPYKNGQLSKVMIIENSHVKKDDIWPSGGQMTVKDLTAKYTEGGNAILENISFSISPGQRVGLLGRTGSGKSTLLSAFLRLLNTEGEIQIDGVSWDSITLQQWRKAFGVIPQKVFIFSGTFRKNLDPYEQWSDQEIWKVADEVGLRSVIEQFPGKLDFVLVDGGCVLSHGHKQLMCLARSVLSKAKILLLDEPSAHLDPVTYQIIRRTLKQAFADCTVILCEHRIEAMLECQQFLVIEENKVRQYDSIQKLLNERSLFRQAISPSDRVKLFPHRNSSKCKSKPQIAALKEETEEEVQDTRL
UniProt O43474: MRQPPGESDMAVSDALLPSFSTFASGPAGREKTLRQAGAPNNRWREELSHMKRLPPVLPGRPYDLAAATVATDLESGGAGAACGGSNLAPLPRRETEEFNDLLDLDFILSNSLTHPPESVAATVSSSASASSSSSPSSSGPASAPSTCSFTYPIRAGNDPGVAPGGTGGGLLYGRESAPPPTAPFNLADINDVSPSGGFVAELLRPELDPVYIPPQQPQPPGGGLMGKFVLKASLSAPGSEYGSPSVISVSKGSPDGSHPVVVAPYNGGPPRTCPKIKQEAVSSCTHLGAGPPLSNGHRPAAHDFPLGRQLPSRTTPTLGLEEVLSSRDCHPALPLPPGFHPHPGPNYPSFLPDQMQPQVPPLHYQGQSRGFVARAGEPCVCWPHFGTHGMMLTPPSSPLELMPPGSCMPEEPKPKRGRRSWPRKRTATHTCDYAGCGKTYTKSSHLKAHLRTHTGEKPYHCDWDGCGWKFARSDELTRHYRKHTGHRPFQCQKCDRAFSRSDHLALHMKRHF

Columns and labels:
[1] = biological target: F508del-CFTR (human) (UniProt P13569); assay: co-IP; lysates of CFBE wt-CFTR and F508del-CFTR cells in PD buffer (50 mM Tris-HCl, 0.1 mM NaCl, 1% NP40, 10% glycerol, pH 7.5), pre-cleared with Protein-G agarose; overnight at 4 °C with anti-CFTR or anti-KLF4; control without antibody; Western blot
[2] = biological target: wt-CFTR (cystic fibrosis transmembrane conductance regulator) (human) (UniProt P13569); assay: as above

binding [1]: no binding
binding [2]: no binding
Substance: Krüppel-like factor 4 (from UniProt O43474 1-513)
